Test results taken from PubChem BioAssay AID445 (National Center for Advancing Translational Sciences (NCATS), 2006).
The list shows a part of the results. Further columns of the screen follow, without active or inactive calls. Most of these compounds were active or inconclusive in the main read-out, so they are no random draw. The note in brackets gives the kind of curve behind each potency; many fits are weak.

Experiment: IkB Signaling
Settings: ABC-DLBCL IkBa-CBG/CBR dual luciferase ratio (green luciferase fused to IkBa over red control in OCI-Ly3 lymphoma cells), 4 h
Source text: NIH Molecular Libraries Screening Centers Network [MLSCN]
NIH Chemical Genomics Center [NCGC]
Nuclear factor kappa-B (NF-kappa-B) plays an important role in normal B cell development and survival. Diffuse large B cell lymphoma (DLBCL) is the most commonly observed type of non-Hodgkin's lymphoma. Gene expression analysis has identified an activated B cell-like subtype of DLBCL (ABC-DLBCL) which expresses known NF-kappa-B target genes. […] However, targets upstream of IKK have been largely unexplored and so nodes upstream of IKK in the NF-kappa-B pathway remain untested due to the lack of chemical probes.
A cell-sensor assay for I-kappa-B-alpha stabilization was developed with NIH investigator Dr. R. Eric Davis in Dr. Louis M. Staudt's laboratory. The assay uses green (CBG68) and red (CBR) emitting beetle luciferases [Chroma-Glo(TM) developed by Promega Corp.] where the green luciferase is fused to I-kappa-B-alpha and the red luciferase is present in its native state. Both luciferase genes are stably present in the OCI-Ly3 human ABC DLBCL cell line, but their expression is under the control of tetracycline-inducible promoters. Following the addition of doxycycline to induce expression of the luciferases, the green luminescence in control cultures rises only slowly because the CBG fusion partner I-kappa-B-alpha is targeted by IKK activity for rapid degradation. In contrast, green luminescence rises rapidly in the presence of proteasome inhibitors or IKK inhibitors. The rise in red luminescence of CBR is not affected by proteasome or IKK inhibitors, and serves as normalization for cell number and nonspecific effects. Compounds were screened as a concentration-titration series that ranged from 57 uM to 0.7 nM.
NCGC Assay Protocol Summary:
Cells were seeded in 1536-well plates at 5000 cells/3ul in IMDM medium containing 0.5% FBS, w/o phenol red, L-glutamine, 25 mM HEPES, 3 mg/ml sodium bicarbonate. After centrifugation for 1 min. at 1000 rpm, 23 nl of compounds or DMSO were delivered to each well using a pin tool. Then 1ul 80ng/ml doxycycline was dispensed into white solid 1536-well plates and the plates were incubated at 37C/5% C02 in a cell incubator for 4 hrs. Then 4 ul Chroma-Glo luminescent substrate mix (Promega) was added to each well. The plate was incubated at R.T. for 10-15 min. The plates were measured on a ViewLux plate reader for green luminescence (540/20 nm filter) and red luminescence (618/8 nm filter). The green and red luminescent signals were corrected for red and green luminescence filter overlap using previously determined filter calibration constants (determined using the procedure outlined in the Promega Technical Manual). The %Activity was determined from the ratio of corrected green/red luminescent values. Green luminescent and ratio %Activity was determined by normalizing to the difference in signal between basal cells (0% Activity) and cells incubated with 10 uM of the proteasome inhibitor MG-132 (100% Activity). Red luminescent %Activity was normalized to the difference between red luminesence in basal cells (0%Activity) and zero luminescence (-100% Activity).
Concentration-response curves were fitted to the signals arising from the green luminescence (I-kappa-B-alpha-luciferase fusion; IkB-luc) and the red luminescence (unfused luciferase; luc) as well as the calculated ratio. The concentration-effect curves were then classified based on curve quality (r2), response magnitude and degree of measured activity. Compounds were then categorized based on their concentration-response curves for all three datasets (Ikb-luc, luc and ratio).
Keywords: IKK, I-kappa-B, IkB, IkBa, cytotoxicity, luminescence, MLSMR, MLSCN, NIH Roadmap, qHTS, NCGC

[1] = measured here: control luc red channel unless noted
[2] = measured here: IkB-luc green channel
[3] = measured here: control luc red channel

## N#Cc1ccccc1NC(=O)c1ccc(-c2ccccc2Cl)o1
[1]
  AC50: 7.94 µM [falling, full curve, poor fit]

## CCCNC(=O)c1cc(-c2ccc(O)cc2)on1
[1]
  AC50: 10 µM [falling, partial curve]

## Cc1cnc(=O)[nH]c1SCC(=O)Nc1nc2ccccc2s1
[1]
  AC50: 0.0251 µM [rising, partial curve]

## COC(=O)Cn1cnc2c(nnn2Cc2ccc(Cl)cc2)c1=O
[1]
  AC50: 12.6 µM [falling, partial curve]

## CCc1ccc(C(=O)NC(Cc2c[nH]c3ccccc23)C(=O)OCC(=O)c2ccc(Br)cc2)cc1 (stereo not drawn)
[1]
  AC50: 39.8 µM [falling, single point]

## CCOC(=O)c1cnc2ccccc2c1Nc1cccc(OC)c1
[1]
  AC50: 39.8 µM [falling, single point]

## Cc1cc(-c2ccc(C)c(S(=O)(=O)Nc3cccc(C#N)c3)c2)on1
[1]
  AC50: 31.6 µM [falling, single point]

## COc1ccc(/C=C/C(=O)Nc2ccc(Cl)c(Cl)c2)cc1
[1]
  AC50: 10 µM [falling, partial curve]

## CCCCn1c(NC(=O)c2ccccc2)c(C#N)c2nc3ccccc3nc21
[1]
  AC50: 3.98 µM [rising, single point] [measured here: IkB-luc green channel]

## COc1ccc(OC)c(C2C(C#N)=C(N)Oc3c2c(C)nn3-c2cccc(Cl)c2)c1 (stereo not drawn)
[1]
  AC50: 10 µM [falling, partial curve]

## Fc1cccc(Cl)c1Cn1nnc2c(N3CCC4(CC3)OCCO4)ncnc21
[1]
  AC50: 39.8 µM [falling, single point]

## C=CCC(CC=C)(CNC(=O)C(=O)Nc1ccc(C(=O)OCC)cc1)c1ccccc1
[1]
  AC50: 0.398 µM [rising, full curve]

## COC(=O)c1ccccc1NC(=O)c1cc2c(-c3ccc(OC)c(OC)c3)nn(C)c2s1
[2]
  AC50: 15.8 µM [rising, partial curve]
[3]
  AC50: 25.1 µM [rising, partial curve]

## Cc1ccc(NC(=O)C(Cc2ccccc2)n2cccc2)cc1C (stereo not drawn)
[1]
  AC50: 39.8 µM [falling, single point]

## Cc1ccc(-c2nc3ccccn3c2Nc2ccc3c(c2)OCO3)o1
[1]
  AC50: 25.1 µM [falling, single point]

## COc1ccc(-c2nn(-c3cccc([N+](=O)[O-])c3)c3c2cnc2cc4c(cc23)OCO4)cc1
[1]
  AC50: 20 µM [rising, partial curve]

## CCCN(C(=O)c1cc2c(s1)-c1c(C)cccc1OC2)c1ccc(OCC)cc1
[1]
  AC50: 25.1 µM [falling, single point]

## COc1ccc2[nH]c3c(=O)n(CCCCC(=O)N4CCC(C(N)=O)CC4)c(=S)[nH]c3c2c1
[1]
  AC50: 15.8 µM [falling, partial curve]

## CCSc1nnnn1-c1cccc(C(=O)O)c1
[1]
  AC50: 0.0631 µM [rising, full curve, poor fit]

## COc1ccc(C2c3[nH]c4ccc(OC)cc4c3CCN2C(=O)Nc2ccccc2)cc1 (stereo not drawn)
[1]
  AC50: 7.94 µM [falling, partial curve]

## Cc1ccc(NC(=O)Cn2cc(S(=O)(=O)c3ccccc3)c(=O)c3cc4c(cc32)OCO4)cc1
[1]
  AC50: 2 µM [falling, full curve, poor fit]

## Cc1ccc(CNC(=O)CSc2nc3n[nH]c(C)c3c(=N)n2-c2cccc(C)c2)cc1
[1]
  AC50: 39.8 µM [falling, partial curve, poor fit]

## CCOc1ccc(NC(=O)Cn2cc(S(=O)(=O)N3CCN(c4ccccc4F)CC3)c3ccccc3c2=O)cc1
[1]
  AC50: 10 µM [falling, partial curve]

## O=C(NCCc1csc2nc(-c3cccc(F)c3)nn12)c1ccc(Br)o1
[1]
  AC50: 20 µM [falling, single point]

## COc1ccc(N(CC(=O)N2CCN(c3ccc(F)cc3)CC2)S(=O)(=O)c2c(C)n[nH]c2C)cc1
[1]
  AC50: 7.94 µM [falling, partial curve]

## COc1cc(OC)cc(-c2cc3nc(C)c(CCC(=O)NC(C)CCc4ccco4)c(C)n3n2)c1 (stereo not drawn)
[1]
  AC50: 10 µM [falling, partial curve]

## CCCCNc1nc2c(c(=O)n(Cc3ccc(Cl)c(Cl)c3)c(=O)n2C)n1C
[1]
  AC50: 15.8 µM [falling, partial curve]

## Cc1ccc(CNC(=O)c2cccc(-n3cnc4cccnc43)c2)cc1
[1]
  AC50: 31.6 µM [falling, single point]

## CCOc1ccc2nc(NC(=O)CN3CCC(n4nnc5cc(F)ccc54)CC3)sc2c1
[1]
  AC50: 10 µM [falling, partial curve]

## CCc1ccc(NC(=O)CCNS(=O)(=O)c2ccc3c(c2)CCCC(=O)N3)cc1
[1]
  AC50: 25.1 µM [falling, single point]

## COc1cccc(C(=O)Nc2c3c(nn2-c2ccc(Cl)cc2)CS(=O)(=O)C3)c1
[1]
  AC50: 12.6 µM [falling, partial curve]

## COc1ccc(NC(=O)c2oc3ccc(S(=O)(=O)N(C)C4CCCCC4)cc3c2C)cc1
[1]
  AC50: 15.8 µM [falling, partial curve]

## Cc1nn(-c2ccccc2)c(C)c1C(=O)OCC(=O)N1CC(=O)Nc2ccccc21
[1]
  AC50: 31.6 µM [falling, single point]

## CCOC(=O)c1ccc(NC(=O)CSc2nc3c([nH]c4ccccc43)c(=O)n2C)cc1
[2]
  AC50: 39.8 µM [rising, single point]
[3]
  AC50: 0.631 µM [rising, full curve]

## Cc1ccccc1-c1noc(-c2cc(-c3ccc(F)cc3)n[nH]2)n1
[1]
  AC50: 0.0398 µM [falling, full curve]

## CCCCc1nc2ccccc2n1CC(=O)N(COCC)c1c(C)cccc1CC
[1]
  AC50: 25.1 µM [falling, single point]

## Cc1cc(C)cc(NC(=O)C2CCN(S(=O)(=O)c3ccc4c(c3)oc(=O)n4C)CC2)c1
[1]
  AC50: 10 µM [falling, partial curve]

## Oc1cc2ccccc2cc1-c1n[nH]c(=S)o1
[1]
  AC50: 20 µM [falling, partial curve]

## COc1ccc(/C=C/C(=O)Nc2ccc3nc(N4CCCCC4)cc(C)c3c2)cc1OC
[1]
  AC50: 15.8 µM [falling, partial curve]

## CC(C)c1ccc(Nc2c(-c3ccco3)nc3ccccn23)cc1
[1]
  AC50: 6.31 µM [falling, partial curve]

## COc1cc(NC(=O)c2ccc(-n3cnc4cccnc43)cc2)cc(OC)c1
[1]
  AC50: 2 µM [falling, full curve]

## Cc1ccc(S(=O)(=O)N(CC(=O)Nc2ccc3c(c2)OCO3)c2ccc(C)c(Cl)c2)cc1
[1]
  AC50: 3.16 µM [falling, full curve, poor fit]

## CCOC(=O)c1ccc(NC(=O)c2ccc(C)c(S(=O)(=O)N3CCOCC3)c2)cc1
[1]
  AC50: 2.51 µM [falling, full curve]

## CC1CCN(C(=O)C2CCN(C(=O)c3cc4sccc4n3Cc3ccc(F)cc3)CC2)CC1
[1]
  AC50: 15.8 µM [falling, partial curve]

## Cc1cc(C)c(NC(=O)Cn2nnc(-c3nc(-c4ccccc4)no3)c2N)c(C)c1
[1]
  AC50: 3.16 µM [falling, full curve]

## O=C(Nc1ccc2c(c1)nc1n2CCSC1)c1ccco1
[1]
  AC50: 3.98 µM [falling, full curve]

## CCN(CC)c1ccc2cc(-c3nc(-c4cc(OC)c(OC)c(OC)c4)no3)c(=O)oc2c1
[1]
  AC50: 31.6 µM [rising, partial curve]

## COC(=O)c1ccccc1NC(=O)Cn1c(=O)n(CCCC(=O)NCc2ccccc2OC)c(=O)c2ccccc21
[1]
  AC50: 7.94 µM [falling, partial curve]

## CC(C)N(Cc1nc(-c2ccccc2)no1)C(=O)c1ccc(Cl)cc1
[1]
  AC50: 25.1 µM [falling, single point]

## CCOc1ccc(-n2nc(CO)c(C(=O)NCc3cccc(OC)c3)n2)cc1
[1]
  AC50: 15.8 µM [falling, single point]

## O=C(CCC1N=C2c3ccccc3N=C(SCc3ccc(F)cc3)N2C1=O)NC1CCCCC1 (stereo not drawn)
[1]
  AC50: 3.98 µM [falling, single point]

## Cc1ccc(-c2oc3ccccc3c(=O)c2O)cc1
[1]
  AC50: 20 µM [rising, partial curve] [measured here: IkB-luc green channel]

## COc1cc2cc(CNc3ccccc3)c(=O)n(CC(=O)Nc3cc(C)cc(C)c3)c2cc1OC
[1]
  AC50: 12.6 µM [falling, single point]

## Cc1ccc(-c2cc(C(F)(F)F)nn2-c2ccc(S(N)(=O)=O)cc2)cc1
[1]
  AC50: 39.8 µM [falling, single point]

## COc1ccccc1NC(=O)C1CCN(c2cnccn2)CC1
[1]
  AC50: 25.1 µM [rising, single point]

## CC(=O)N1CCCc2cc(S(=O)(=O)N3CCN(c4cccc(C(F)(F)F)c4)CC3)ccc21
[1]
  AC50: 15.8 µM [falling, partial curve]

## CCOc1ccc(NC(=O)Nc2ccc3c(c2)N(C)C(=O)CS3)cc1
[1]
  AC50: 12.6 µM [falling, partial curve]

## Cc1ccc(-n2nc(C)c3c(C(=O)O)cc(C)nc32)cc1
[1]
  AC50: 10 µM [falling, partial curve]

## CCOc1ccc(-c2cc(C(=O)NCCc3ccccc3)c3c(-c4ccc(C)cc4)[nH]nc3n2)cc1
[1]
  AC50: 0.0631 µM [rising, full curve, poor fit]

## Cc1ccc(Oc2nc3ccccn3c(=O)c2/C=C(\C#N)c2nc3ccccc3s2)c(C)c1
[1]
  AC50: 7.94 µM [falling, single point]

## CCN(CC)c1ccc(NS(=O)(=O)c2ccc(-c3coc(C)n3)cc2)c(C)c1
[1]
  AC50: 15.8 µM [falling, partial curve]
